The assay concerns the target BCCL2 LLER protein (L105E, L106E, E120R, R121E), His6-tagged, from E. coli (rhesus monkey) (UniProt Q0PF16). Description: SEC; Superdex 200 (10/30) column calibrated with globular molecular-weight markers, PBS; for LLER also with 25 μM ZnCl2 and DTT (profile not significantly affected); both purified. Background: In gel filtration, larger molecules generally elute earlier.

No constants are given. Whether binding was seen depends on the method and setting. Some entries that bind do so weakly or less than the wild type.

B1: BCCL2 LLER protein (L105E, L106E, E120R, R121E), His6-tagged, from E. coli (domain or fragment, rhesus monkey)
chain: GSGLVPRGSASMSDSEVNQEAKPEVKLSPEEGQKVDHCARHGEKLEEFCQEDSKVICWLCRESQEHRGHHTFLMEEVAQEYHVKLQTALEMLRQKQQEAEKLEADIREEKASWKIQIDYDKTNVSADFEQLREILDWEESNELQNLEKEEEDILKSLTKSETEMVQQTQYMRELISELEHRLQGSMMDLLQGVDGIIKRIENMTLKKPKTFHKNQRRVFRAPDLKGMLDMFRELTDA
notes: vector-derived spacer between the His6 tag and E83 of TRIM5αrh; also called LLER variant; source: E. coli BL21(DE3)pLysS, purified (Ni-NTA, anion exchange, SEC); not shown: His6, N-terminal, kept
With B1, the binding entry is reported as “binds”.

These data come from PMC3025952, “Characterization of a core fragment of the rhesus monkey TRIM5α protein” (BMC Biochemistry, 2011).
